In PubChem BioAssay AID1273 (Columbia University Molecular Screening Center, 2008):
The list shows a part of the results. These are further read-outs of the screen, such as a control signal, another cell line or another target. No call is given for them. Compounds called inactive in the main read-out are mostly missing here.

Assay: insulin gene promoter suppression in islet cells – imaging, TRM-6 cells (human fetal islet line), eGFP reporter, cell count, primary screen (AID 1273)
Conditions: measured here: cell count, toxicity, at 2 µM, reporter expression induced with tamoxifen

Row | SMILES | normalized cell count
1 | C=CCn1c(-c2cccs2)nc2ccccc21 | 88.5%
2 | CC(C)C(=O)N1CCN(c2ccc(NC(=O)c3ccc4c(c3)OCCO4)cc2)CC1 | 88.8%
3 | Nc1ncnc(Nc2ccccc2C(F)(F)F)n1 | 144%
4 | CCOc1ccccc1NC(=O)Cc1ccccc1OC | 129%
5 | COc1ccc(NC(=S)NNC(=O)CCn2cc([N+](=O)[O-])cn2)cc1 | 49.6%
6 | Cn1c(SCc2ccc(F)cc2)nnc1-c1cccs1 | 78.5%
7 | CC(=O)C(=Nc1ccccc1Cl)NNc1ccc(Cl)cc1 | 111%
8 | CCCCNC(=O)OCC(CC)NC(=O)OC(C)C (configuration not stated) | 118%
9 | CC(=O)NC1(c2cccc(F)c2)CCN(CC(=O)NC2CCCCC2)CC1 | 127%
10 | Cc1sc2c(c1C)c(=O)n(-c1cccc(C(F)(F)F)c1)c(=O)n2CC(=O)NCc1ccco1 | 47.6%
11 | Cc1cc(C(=O)NCc2ccccc2)c(=O)[nH]c1C | 98.3%
12 | N#C/C(=C\C1CC2C=CC1C2)c1nc2ccccc2[nH]1 (configuration not stated) | 171%
13 | CSc1ccc(/C=C(/Sc2nnc(-c3ccccc3)o2)C(=O)O)cc1 | 52.9%
14 | Cc1ccc(N=Nc2c(C)[nH][nH]c2=O)c(C)c1 | 110%
15 | CCn1c(COc2ccc3c(c2)OCO3)nnc1SCC(=O)O | 132%
16 | CCOC(=O)c1oc2c(c1C)/C(=N/O)CCC2 | 112%
17 | CCOc1ccc(N2C(=O)CC(Sc3nccc(C)n3)C2=O)cc1 (configuration not stated) | 21.4%
18 | Cc1ccc(NC(=O)COC(=O)CN2C(=O)NC(C)(C)C2=O)cc1S(=O)(=O)N1CCOCC1 | 160%
19 | O=C(NCc1ccc(Cl)cc1)C(=O)NCC1OCCN1C(=O)c1ccc(Cl)cc1 (configuration not stated) | 70.9%
20 | CCn1c(C2CC(=O)N(c3cc(C)cc(C)c3)C2)nc2ccccc21 (configuration not stated) | 137%
21 | Cn1c(=O)c(Oc2ccc(F)cc2)c(O)c2ccccc21 | 81%
22 | CNC(=O)c1cc(C)c(-c2ccccc2)s1 | 106%
23 | CCc1ccc(NC(=S)N2CCCCCCC2)cc1 | 40.5%
24 | CCCCn1c(CN(C)Cc2ccccc2)nc2c1c(=O)n(C)c(=O)n2C | 92.9%
25 | C[N+]12CCCCC1C(COC(=O)c1ccc3c(c1)OCO3)CCC2 (configuration not stated) | 47.8%
26 | Cn1c(=O)c2c(nc(CN3CCOCC3)n2CCCc2ccccc2)n(C)c1=O | 180%

Row | SMILES | normalized cell count
27 | CCOc1ccc(Br)cc1CC(=O)O | 73.7%
28 | Cc1cccc(N2CCCn3c2nc2c3c(=O)n(CCN3CCOCC3)c(=O)n2C)c1 | 105%
29 | COc1ccc2[nH]c(=O)c(CN(C(C)=O)c3cccc(C)c3)cc2c1 | 100%
30 | Cc1nc(Nc2ccc3c(c2)OCO3)c2oc3ccccc3c2n1 | 140%
31 | CCCn1nnc(NC(=O)c2ccc(Br)cc2)n1 | 164%
32 | N#CCCN1CCNCC1 | 113%
33 | Cc1ccc(NCCc2ccc(C)nc2)cc1 | 153%
34 | CCN1C/C(=C/c2cccc([N+](=O)[O-])c2)C(=O)/C(=C/c2cccc([N+](=O)[O-])c2)C1 | 0%
35 | CCOc1nc(NC(=O)NS(=O)(=O)c2ccccc2F)nc(-c2ccccc2)n1 | 133%
36 | COc1ccc(-c2nc(SCC(=O)NCc3ccco3)c(-c3ccccc3)[nH]2)cc1OC | 86.7%
37 | COc1ccc(C(=O)O)cc1F | 115%
38 | CN1CCN(C(=O)CSc2ccc(Cl)cc2)CC1 | 87.5%
39 | O=C(CSc1nnnn1Cc1ccccc1)c1ccccc1F | 41.1%
40 | CSc1nc(-c2ccc(Cl)cc2)nn1C(=O)c1ccccc1 | 172%
41 | O=C(CSc1nnc2ccccn12)NCc1ccco1 | 54%
42 | CC(C)OCCCNC(=O)NC12CC3CC(CC(C3)C1)C2 | 151%
43 | COc1ccc(NC(=O)N2CCCCC2)cc1 | 102%
44 | CC1=C(C(=O)OCc2ccc(C)cc2)C(c2ccc(O)c([N+](=O)[O-])c2)NC(=O)N1 (configuration not stated) | 46.9%
45 | O=C(CSc1ccc(-c2ccco2)nn1)Nc1ccccc1 | 181%
46 | CCNc1nc(NC(C)C)nc(OCC)n1 | 161%
47 | CC1CC1C(=O)OCC(=O)NC(=O)NC12CC3CC(CC(C3)C1)C2 (configuration not stated) | 22.9%
48 | COC(=O)c1ccc2nc(C(F)(F)F)[nH]c2c1 | 77.8%
49 | CN(Cc1ccc(O)cc1)C1CCCCC1 | 56.2%
50 | CC(=O)NC1C(=O)N(CCc2ccccc2)c2ccc(Br)cc21 (configuration not stated) | 68.3%
51 | CN(/N=C/c1cccnc1)c1cnc2ccccc2n1 | 96%
52 | O=C(NCc1ccccc1Cl)C(=O)NCC(c1ccco1)N1CCOCC1 (configuration not stated) | 78.2%

Looked up one by one from above (three):
Row | SMILES | normalized cell count
36 | COc1ccc(-c2nc(SCC(=O)NCc3ccco3)c(-c3ccccc3)[nH]2)cc1OC | 86.7%
43 | COc1ccc(NC(=O)N2CCCCC2)cc1 | 102%
37 | COc1ccc(C(=O)O)cc1F | 115%

(list continues)

Row | SMILES | normalized cell count
53 | Cc1cc(N2CCOCC2)nc2ccc(NC(=S)N3CCCCC3C)cc12 (configuration not stated) | 44%
54 | CCN1C(=O)CC(N2CCN(c3ccc(C(=O)c4ccncc4)cc3)CC2)C1=O (configuration not stated) | 134%
55 | COC(=O)c1c(N2C(=O)Nc3ccccc3N2O)sc2c1CCCC2 | 166%
56 | CC(C)Cn1nc(NC(=O)C2CCCO2)c2cc3ccccc3nc21 (configuration not stated) | 158%
57 | COc1cc(CC(=O)Nc2cccc(SC)c2)cc(OC)c1OC | 101%
58 | Cn1ccc(=S)c2ccccc21 | 66%
59 | CS(=O)(=O)NCCCNc1c(Cl)cccc1[N+](=O)[O-] | 53.5%
60 | O=C(CSc1ncccn1)NN=C1CCCCCC1 | 172%
61 | O=C(NCc1ccccc1)N[C@@H](Cc1c[nH]c2ccccc12)C(=O)O | 78.9%
62 | CN1C(=O)NC(c2ccccc2)C2=C1CN(Cc1ccco1)C2=O (configuration not stated) | 67.5%
63 | Cc1[nH]nc2ncc(C(=O)c3ccccc3O)cc12 | 130%
64 | Cc1nc2c([nH]c3ccccc32)c(=O)n1N | 74.7%
65 | COc1ccc(NC(=O)COC(=O)C2CC3C=CC2C3)cc1 (configuration not stated) | 94.4%
66 | Cc1ccc(NC(=O)CC(O)(C(F)(F)F)C(F)(F)F)cc1 | 128%
67 | C#CCn1c(-c2cccs2)nc2ccccc21 | 141%
68 | COc1ccc2cc3c(N)nn(C(=O)C4CCC(C(C)(C)C)CC4)c3nc2c1 (configuration not stated) | 90.3%
69 | NC(=O)Cc1nc(-c2ccc([N+](=O)[O-])cc2)cs1 | 95.5%
70 | CCC(=O)c1cc(F)c(N2CCN(C(=O)c3ccco3)CC2)cc1C | 139%
71 | Nc1cc(N2CCCCC2)c([N+](=O)[O-])cc1Cl | 115%
72 | O=C(Nc1ccc2nc(-c3ccccc3)[nH]c2c1)c1cccs1 | 185%
73 | O=C(N/N=C/c1cc([N+](=O)[O-])c(N2CCOCC2)cc1N1CCOCC1)c1cccnc1 | 120%
74 | COC(=O)c1ccc(Oc2nc(C(N)=O)cc(-c3ccccc3)n2)cc1 | 57%
75 | Nc1ncc(Br)cc1N=Cc1ccccc1 | 83.3%
76 | COc1ccc(CNC(=O)/C=C/c2ccco2)cc1OC | 19.4%
77 | Cc1ccc(SCC2=NN(c3nc(C)cc(C)n3)C(=O)C2)cc1 | 95.1%
